Changes are numbered by the printed parent chain. Results are given in words; binding and its absence hold for the method and conditions named. In cells and extracts the contact can be indirect. Some binding calls cover weakened binding; strength is not graded here. Tags and fused reporters may be left off the sequences shown.

By UniProt entry, the sequences of proteins in these tests, tags left out.
UniProt Q93009: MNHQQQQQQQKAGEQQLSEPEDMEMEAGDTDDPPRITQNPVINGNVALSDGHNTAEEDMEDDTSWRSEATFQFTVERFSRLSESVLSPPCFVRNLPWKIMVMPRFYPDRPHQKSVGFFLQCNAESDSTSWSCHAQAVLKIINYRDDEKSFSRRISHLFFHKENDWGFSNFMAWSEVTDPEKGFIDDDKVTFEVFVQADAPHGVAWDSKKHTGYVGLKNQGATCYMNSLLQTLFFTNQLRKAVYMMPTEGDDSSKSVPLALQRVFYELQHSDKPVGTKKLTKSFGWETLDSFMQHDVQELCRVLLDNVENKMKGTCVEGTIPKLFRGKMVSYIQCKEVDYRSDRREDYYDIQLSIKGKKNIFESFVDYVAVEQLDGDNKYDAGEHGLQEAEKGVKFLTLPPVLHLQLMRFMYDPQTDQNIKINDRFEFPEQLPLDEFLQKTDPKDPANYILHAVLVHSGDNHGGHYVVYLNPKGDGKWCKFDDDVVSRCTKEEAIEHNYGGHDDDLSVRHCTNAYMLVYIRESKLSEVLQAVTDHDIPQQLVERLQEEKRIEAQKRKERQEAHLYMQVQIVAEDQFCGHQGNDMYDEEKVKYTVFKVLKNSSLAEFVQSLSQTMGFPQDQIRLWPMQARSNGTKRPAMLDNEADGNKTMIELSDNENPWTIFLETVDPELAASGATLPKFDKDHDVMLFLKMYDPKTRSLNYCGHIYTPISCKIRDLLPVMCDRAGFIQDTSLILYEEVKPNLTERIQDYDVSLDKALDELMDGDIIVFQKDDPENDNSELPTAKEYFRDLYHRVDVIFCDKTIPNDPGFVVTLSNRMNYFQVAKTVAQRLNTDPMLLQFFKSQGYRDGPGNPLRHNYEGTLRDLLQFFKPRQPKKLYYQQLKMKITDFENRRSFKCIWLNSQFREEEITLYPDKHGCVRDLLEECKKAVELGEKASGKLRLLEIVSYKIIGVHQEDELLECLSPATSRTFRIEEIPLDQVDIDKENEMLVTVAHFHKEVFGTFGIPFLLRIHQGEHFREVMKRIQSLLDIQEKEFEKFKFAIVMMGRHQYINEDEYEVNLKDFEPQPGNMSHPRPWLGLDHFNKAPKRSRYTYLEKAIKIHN

For test [1], the target named is T1, FLAG-tagged full-length OTUD4 H148A (histidine-to-alanine substitution control) (human) (UniProt Q01804).
T1 sequence: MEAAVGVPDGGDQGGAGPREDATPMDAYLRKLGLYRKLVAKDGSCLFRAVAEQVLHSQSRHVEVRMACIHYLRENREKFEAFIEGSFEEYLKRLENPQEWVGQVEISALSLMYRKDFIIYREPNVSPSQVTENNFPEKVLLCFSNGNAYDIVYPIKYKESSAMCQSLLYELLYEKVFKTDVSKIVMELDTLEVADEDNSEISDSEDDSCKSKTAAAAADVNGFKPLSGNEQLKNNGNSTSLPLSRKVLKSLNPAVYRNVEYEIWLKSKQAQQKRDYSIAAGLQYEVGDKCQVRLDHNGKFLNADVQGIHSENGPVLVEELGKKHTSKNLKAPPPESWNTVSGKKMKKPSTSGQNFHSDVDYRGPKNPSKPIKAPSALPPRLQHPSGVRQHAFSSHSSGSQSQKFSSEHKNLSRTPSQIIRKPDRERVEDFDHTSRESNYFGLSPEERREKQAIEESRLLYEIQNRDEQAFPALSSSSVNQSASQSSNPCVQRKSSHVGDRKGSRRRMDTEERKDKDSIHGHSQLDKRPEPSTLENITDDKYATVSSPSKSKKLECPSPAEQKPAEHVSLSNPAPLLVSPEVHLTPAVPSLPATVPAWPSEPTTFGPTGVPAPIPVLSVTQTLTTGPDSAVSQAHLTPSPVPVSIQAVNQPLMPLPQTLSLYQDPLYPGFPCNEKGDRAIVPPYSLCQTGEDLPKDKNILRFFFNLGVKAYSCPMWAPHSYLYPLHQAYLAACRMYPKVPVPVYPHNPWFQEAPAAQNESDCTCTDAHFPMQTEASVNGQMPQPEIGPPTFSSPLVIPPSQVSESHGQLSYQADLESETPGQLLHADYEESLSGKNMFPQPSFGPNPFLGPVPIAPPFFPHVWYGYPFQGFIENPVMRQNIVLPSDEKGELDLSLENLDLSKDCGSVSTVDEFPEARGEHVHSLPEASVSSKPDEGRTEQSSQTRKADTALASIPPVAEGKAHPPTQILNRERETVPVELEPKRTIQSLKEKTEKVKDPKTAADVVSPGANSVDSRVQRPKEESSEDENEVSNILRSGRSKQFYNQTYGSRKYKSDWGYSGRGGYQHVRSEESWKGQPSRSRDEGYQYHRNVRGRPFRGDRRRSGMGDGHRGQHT
In words: co-IP; HEK293T cells transfected with the indicated plasmids, 48 to 72 h; clarified lysates incubated overnight at 4 °C with anti-FLAG M2-agarose or anti-HA-agarose beads; Western blot.

For test [2], the target named is T2, FLAG-tagged full-length OTUD4 H148Y (tumor-associated variant) (human) (UniProt Q01804).
T2 sequence: T1 sequence with A148Y
Described as above.

Turning to “USP7 (from UniProt Q93009 1-1102) (enzyme)”, the binding entry in test [1] and in test [2] was “binds” throughout.

(Values after paper PMC12607013.)
